Test results published in doi:10.1101/2024.08.29.610313.
These are yes or no findings as the source states them, for the method shown. In cells and extracts the contact can be indirect. Here binding means that the protein was enriched with, or labelled near, the bait; the list need not be complete.

Amino acid sequences for entries named in this document (tags omitted).
UniProt Q12888: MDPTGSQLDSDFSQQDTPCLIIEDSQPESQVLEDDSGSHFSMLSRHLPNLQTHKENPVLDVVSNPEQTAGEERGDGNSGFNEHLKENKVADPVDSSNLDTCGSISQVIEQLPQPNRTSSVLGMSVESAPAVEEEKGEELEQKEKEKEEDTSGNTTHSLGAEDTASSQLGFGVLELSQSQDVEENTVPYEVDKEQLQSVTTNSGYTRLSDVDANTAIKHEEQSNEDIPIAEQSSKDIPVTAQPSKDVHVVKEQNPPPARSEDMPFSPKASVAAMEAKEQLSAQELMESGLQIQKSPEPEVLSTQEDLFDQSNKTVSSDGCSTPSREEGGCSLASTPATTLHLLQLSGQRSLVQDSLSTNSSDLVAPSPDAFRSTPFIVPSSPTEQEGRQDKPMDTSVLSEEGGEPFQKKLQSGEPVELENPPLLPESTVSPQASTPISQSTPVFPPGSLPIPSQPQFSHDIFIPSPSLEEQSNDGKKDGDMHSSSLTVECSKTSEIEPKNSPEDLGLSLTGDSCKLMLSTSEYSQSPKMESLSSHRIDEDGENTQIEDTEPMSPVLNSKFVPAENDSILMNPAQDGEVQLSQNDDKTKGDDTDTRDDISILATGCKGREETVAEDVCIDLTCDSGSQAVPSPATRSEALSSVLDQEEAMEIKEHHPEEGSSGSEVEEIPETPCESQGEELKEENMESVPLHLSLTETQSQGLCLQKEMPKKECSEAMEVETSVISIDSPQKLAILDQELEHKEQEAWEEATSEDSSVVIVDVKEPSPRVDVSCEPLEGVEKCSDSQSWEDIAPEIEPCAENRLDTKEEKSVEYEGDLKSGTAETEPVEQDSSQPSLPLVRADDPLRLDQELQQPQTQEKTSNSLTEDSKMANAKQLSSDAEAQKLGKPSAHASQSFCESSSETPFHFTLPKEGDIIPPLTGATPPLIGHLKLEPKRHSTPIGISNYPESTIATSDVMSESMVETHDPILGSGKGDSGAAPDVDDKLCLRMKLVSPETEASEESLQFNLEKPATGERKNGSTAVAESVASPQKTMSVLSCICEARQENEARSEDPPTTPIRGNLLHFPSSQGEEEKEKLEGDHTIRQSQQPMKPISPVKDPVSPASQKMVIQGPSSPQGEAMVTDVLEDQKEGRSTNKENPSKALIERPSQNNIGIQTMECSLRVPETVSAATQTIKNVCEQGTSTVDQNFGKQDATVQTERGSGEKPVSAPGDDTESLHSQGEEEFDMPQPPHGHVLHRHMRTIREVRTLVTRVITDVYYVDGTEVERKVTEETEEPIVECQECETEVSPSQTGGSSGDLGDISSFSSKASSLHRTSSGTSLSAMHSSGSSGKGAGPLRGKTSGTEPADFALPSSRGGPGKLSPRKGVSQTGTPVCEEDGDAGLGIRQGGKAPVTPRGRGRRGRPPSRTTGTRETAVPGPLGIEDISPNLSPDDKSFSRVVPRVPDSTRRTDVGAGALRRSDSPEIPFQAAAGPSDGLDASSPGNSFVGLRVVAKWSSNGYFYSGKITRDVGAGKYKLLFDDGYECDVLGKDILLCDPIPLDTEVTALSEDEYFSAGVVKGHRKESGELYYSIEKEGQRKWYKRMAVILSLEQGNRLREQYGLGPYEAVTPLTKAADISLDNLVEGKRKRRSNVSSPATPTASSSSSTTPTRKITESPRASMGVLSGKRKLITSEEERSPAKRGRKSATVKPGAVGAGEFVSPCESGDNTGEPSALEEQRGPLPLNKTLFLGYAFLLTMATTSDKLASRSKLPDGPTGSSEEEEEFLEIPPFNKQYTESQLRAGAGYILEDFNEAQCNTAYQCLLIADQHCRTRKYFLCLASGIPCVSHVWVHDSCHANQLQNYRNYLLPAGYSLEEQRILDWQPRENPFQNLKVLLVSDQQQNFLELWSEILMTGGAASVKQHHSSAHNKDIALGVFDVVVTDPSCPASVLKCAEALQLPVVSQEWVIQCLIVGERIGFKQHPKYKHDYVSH
UniProt P13861: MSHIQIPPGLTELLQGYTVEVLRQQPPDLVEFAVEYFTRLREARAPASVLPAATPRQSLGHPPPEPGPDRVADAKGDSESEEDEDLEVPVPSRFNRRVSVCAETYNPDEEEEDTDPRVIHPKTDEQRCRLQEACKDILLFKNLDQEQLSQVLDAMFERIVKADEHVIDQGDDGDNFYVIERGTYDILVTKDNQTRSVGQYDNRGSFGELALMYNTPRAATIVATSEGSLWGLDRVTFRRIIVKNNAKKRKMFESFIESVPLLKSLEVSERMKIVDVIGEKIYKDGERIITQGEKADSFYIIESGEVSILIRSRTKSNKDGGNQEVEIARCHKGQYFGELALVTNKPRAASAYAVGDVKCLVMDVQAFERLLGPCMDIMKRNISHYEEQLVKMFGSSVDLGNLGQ
UniProt P31323: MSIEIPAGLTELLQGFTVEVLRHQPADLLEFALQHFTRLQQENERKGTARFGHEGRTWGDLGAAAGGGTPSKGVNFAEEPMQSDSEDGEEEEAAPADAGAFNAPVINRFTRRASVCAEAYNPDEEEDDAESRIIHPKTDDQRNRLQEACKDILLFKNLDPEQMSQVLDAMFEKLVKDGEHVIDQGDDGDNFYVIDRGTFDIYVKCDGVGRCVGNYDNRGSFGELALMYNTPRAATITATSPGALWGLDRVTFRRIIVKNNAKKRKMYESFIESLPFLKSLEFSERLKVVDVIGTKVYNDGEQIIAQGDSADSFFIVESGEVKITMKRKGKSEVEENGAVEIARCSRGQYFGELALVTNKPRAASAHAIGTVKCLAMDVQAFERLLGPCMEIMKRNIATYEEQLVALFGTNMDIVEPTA

biological target: 53BP1 (human (endogenous in SV40-transformed fibroblasts)) (UniProt Q12888); experiment: affinity purification with mass spectrometry

Substance	binding
DNA-PKcs (from UniProt P78527 1-4128) (enzyme)	binds
cAMP-dependent protein kinase regulatory type II-α subunit (from UniProt P13861 1-404)	binds
cAMP-dependent protein kinase regulatory type II-β subunit (from UniProt P31323 1-418)	binds
